Data: publication PMC4267619

Biological target: YT521-B YTH domain (Rattus norvegicus) (UniProt Q9QY02)
Assay: NMR titration (1H-15N HSQC)
Conditions: 20 C, 0.2 mM protein, fast/intermediate exchange; 25 mM NaH2PO4, 25 mM NaCl, 10 mM beta-mercaptoethanol, pH 7; recombinant protein; residues 347-502

UGACAC [5'-UGACAC-3']
binding result: binds more weakly

The comparison behind a weaker result is the experiment's own reference, which may not be listed here.
